Measured values published in patent US11919851B2, “Method for producing polyol-based esters of optionally acylated hydroxycarboxylic acids” (IOI Oleo GmbH, priority 2019, dated 2024).
Some results were stated once for a whole list of compounds, not compound by compound.

Each substance was assayed on pancreatin (Panzytrat 40,000) (assay: cleavage experiments with pancreatin, acid number recorded over time). Conditions: 2 g sample in 50 g water, 50° C.
Assay type: in vitro ADME, porcine

Acid number over the observation period, increases:
mono-diglycerol ester of acylated 3-hydroxybutyric acid (=3-acetoxybutyric acid) [sample 6]
3-BHB mono-diglycerol ester [sample 3]
3-BHB di-diglycerol ester [sample 4]
3-BHB tri-diglycerol ester [sample 5]
di-diglycerol ester of acylated 3-hydroxybutyric acid (=3-acetoxybutyric acid) [sample 7]
tri-diglycerol ester of acylated 3-hydroxybutyric acid (=3-acetoxybutyric acid) [sample 8]
